PubChem BioAssay AID1053208, Peter MacCallum Cancer Centre – 2014

Screen: 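Find knock-downs that sensitise mouse osteosarcoma cells to doxorubicin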 (primary screen)
Cells: mouse osteosarcoma cells, early-passage culture from an engineered mouse model of fibroblastic bone tumour
Reagent: siRNA pool against mouse genes, 40 nM
Duration: about 120 h (48 h before drug, then 72 h with drug)
Conditions: doxorubicin 100 nM for 72 h, roughly 30-40% inhibitory dose
Read-out: 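Luminescent ATP signal taken as viability with or without 100 nM doxorubicin for 72 h; mean of two wells set against non-targeting siRNA and turned into robust z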
Direction: viability z-score with doxorubicin and doxorubicin viability vs non-targeting: higher = more viable cells under doxorubicin; viability z-score without drug: higher = more viable cells with knock-down alone; z-score of drug to no-drug ratio: higher = less drug sensitisation by knock-down
Rule for the call: 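a pool counts as active when its viability z-score with doxorubicin is -2 or below and its z-score without drug lies between -2 and 2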
Here is an unselected part of about 17,000 deposited reagents. Over the whole deposit, 788 (4.7%) are marked active. 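Calls rest on z-score classes alone; an extra cut-off of viability at most 70% of control was not applied to them.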

| target gene | combined z-score class | viability z-score with doxorubicin | viability z-score without drug | z-score of drug to no-drug ratio | doxorubicin viability vs non-targeting | Outcome |
| --- | --- | --- | --- | --- | --- | --- |
| Cfi | no change with or without drug | 0.56 | -0.51 | 1.12 | 0.99 | inactive |
| Dusp22 | no change with or without drug | 1.57 | 0.51 | 1.35 | 1.08 | inactive |
| Rpia | no change with or without drug | 0.45 | -1.35 | 1.69 | 0.98 | inactive |
| Zranb1 | no change with or without drug | 0.34 | 0.67 | 0 | 0.97 | inactive |
| Gng8 | no change with or without drug | 0.34 | 1.18 | -0.34 | 0.97 | inactive |
| Nat9 | no change with or without drug | -0.67 | 0.67 | -1.01 | 0.88 | inactive |
| Npm1 | high cell count with doxorubicin only | 2.47 | 0.84 | 2.02 | 1.16 | inactive |
| Immp2l | no change with or without drug | 1.24 | -0.51 | 1.8 | 1.05 | inactive |
| Hrh1 | low cell count without drug only | 0 | -2.36 | 2.02 | 0.94 | inactive |
| Atf7ip | no change with or without drug | -0.45 | 0 | -0.34 | 0.9 | inactive |
| Traf6 | no change with or without drug | -0.67 | 0.17 | -0.67 | 0.88 | inactive |
| Or5m10 | no change with or without drug | 0.67 | 0.34 | 0.56 | 1 | inactive |
| Slc6a3 | no change with or without drug | -0.45 | 1.18 | -1.12 | 0.9 | inactive |
| Or51ab3 | high cell count without drug only | 0.56 | 2.02 | -0.56 | 0.99 | inactive |
| Rfxap | no change with or without drug | -1.12 | 0.51 | -1.35 | 0.84 | inactive |
| Rgs9bp | no change with or without drug | 1.69 | 0.67 | 1.35 | 1.09 | inactive |
| Vps18 | no change with or without drug | -0.9 | -1.35 | 0.11 | 0.86 | inactive |
| Apol10b | low cell count with doxorubicin only | -2.59 | -1.18 | -1.91 | 0.71 | active |
| Acp1 | low cell count with and without drug | -2.36 | -2.19 | -1.01 | 0.73 | inactive |
| Isg20 | no change with or without drug | 1.35 | 0.17 | 1.35 | 1.06 | inactive |
| Gabrr2 | no change with or without drug | 0.45 | 0.17 | 0.45 | 0.98 | inactive |
| Htra1 | no change with or without drug | 1.57 | 0.51 | 1.35 | 1.08 | inactive |
| Adamts8 | no change with or without drug | 1.12 | 0.84 | 0.67 | 1.04 | inactive |
| Nrtn | no change with or without drug | -1.35 | -0.51 | -1.01 | 0.82 | inactive |
| Wfdc2 | no change with or without drug | 0.67 | 1.18 | 0 | 1 | inactive |
| Cacna2d1 | no change with or without drug | 1.01 | 0.34 | 0.9 | 1.03 | inactive |
| Kif2a | no change with or without drug | -0.9 | 1.18 | -1.57 | 0.86 | inactive |
| Arc | no change with or without drug | -0.22 | 0.17 | -0.22 | 0.92 | inactive |
| D830014E11Rik | no change with or without drug | -0.9 | 0.67 | -1.24 | 0.86 | inactive |
| Ccnd3 | no change with or without drug | 1.12 | 0.17 | 1.12 | 1.04 | inactive |

6 entries from above in another layout:
target gene | combined z-score class | viability z-score with doxorubicin | viability z-score without drug | z-score of drug to no-drug ratio | doxorubicin viability vs non-targeting | Outcome
Rfxap | no change with or without drug | -1.12 | 0.51 | -1.35 | 0.84 | inactive
Rgs9bp | no change with or without drug | 1.69 | 0.67 | 1.35 | 1.09 | inactive
Vps18 | no change with or without drug | -0.9 | -1.35 | 0.11 | 0.86 | inactive
Apol10b | low cell count with doxorubicin only | -2.59 | -1.18 | -1.91 | 0.71 | active
Acp1 | low cell count with and without drug | -2.36 | -2.19 | -1.01 | 0.73 | inactive
Isg20 | no change with or without drug | 1.35 | 0.17 | 1.35 | 1.06 | inactive

The listing continues.
| target gene | combined z-score class | viability z-score with doxorubicin | viability z-score without drug | z-score of drug to no-drug ratio | doxorubicin viability vs non-targeting | Outcome |
| --- | --- | --- | --- | --- | --- | --- |
| Taldo1 | no change with or without drug | -0.9 | -0.17 | -0.79 | 0.86 | inactive |
| Sfrp5 | no change with or without drug | -0.11 | 0 | 0 | 0.93 | inactive |
| Or2bd2 | no change with or without drug | -0.67 | 1.18 | -1.35 | 0.88 | inactive |
| Pgap1 | no change with or without drug | -0.67 | 1.85 | -1.69 | 0.88 | inactive |
| Aqr | low cell count with and without drug | -4.95 | -2.7 | -3.93 | 0.5 | inactive |
| Pde1a | no change with or without drug | -0.67 | -1.18 | 0.22 | 0.88 | inactive |
| Ano5 | no change with or without drug | -0.22 | 0.17 | -0.22 | 0.92 | inactive |
| Tpx2 | no change with or without drug | -0.9 | -0.84 | -0.22 | 0.86 | inactive |
| Sap18 | no change with or without drug | 0.22 | 0.17 | 0.22 | 0.96 | inactive |
| Glt8d1 | no change with or without drug | -0.45 | 1.18 | -1.12 | 0.9 | inactive |
| Tspyl3 | no change with or without drug | 0.67 | 0.51 | 0.45 | 1 | inactive |
| Tas2r110 | no change with or without drug | 0.79 | 0.51 | 0.56 | 1.01 | inactive |
| Il12rb2 | high cell count with doxorubicin only | 2.02 | 0 | 2.25 | 1.12 | inactive |
| Tnip2 | no change with or without drug | 0.67 | 1.01 | 0.11 | 1 | inactive |
| Prss22 | no change with or without drug | -0.22 | -0.67 | 0.34 | 0.92 | inactive |
| 5330438I03Rik | no change with or without drug | 1.8 | 1.18 | 1.12 | 1.1 | inactive |
| Krt2 | no change with or without drug | -0.45 | -1.18 | 0.45 | 0.9 | inactive |
| Hspb7 | no change with or without drug | 1.91 | 1.18 | 1.24 | 1.11 | inactive |
| Cebpb | no change with or without drug | 1.12 | 1.35 | 0.34 | 1.04 | inactive |
| Crip3 | no change with or without drug | -0.11 | 0.67 | -0.45 | 0.93 | inactive |
